The text below walks through data of PMC4993509 (PLoS ONE, 2016).

Results are given in words; binding and its absence hold for the method and conditions named.

The target in assay [1] is SYCP1 CC D700R, K764E double mutant (human) (UniProt Q15431). Briefly: SEC; Superdex 200 gel filtration, 20 mM Tris-HCl pH 8.0, 150 mM NaCl; wild type and double mutant compared; both purified. In general terms: In gel filtration, larger molecules generally elute earlier.
Assay [2] shares this target. In words: SEC-MALS; Superdex 200 HR 10/30 coupled to three-angle light scattering (mini-DAWN EOS) and refractive index detector, flow 0.2 ml/min; both purified.

B1: SYCP1 CC D700R, K764E double mutant (domain or fragment, UniProt Q15431 662-801)
chain: DTYQKEIEDKKISEENLLEEVEKAKVIADEAVKLQKEIRKRCQHKIAEMVALMEKHKHQYDKIIEERDSELGLYKSKEQEQSSLRASLEIELSNLKAELLSVEKQLEIEREEKEKLKREAKENTATLKEKKDKKTQTFLL
B1: the binding result in assay [1] and in assay [2] was “no binding” each time.
